No constants are given. Whether binding was seen depends on the method and setting. Binding seen in cells or lysates may run through a third protein. Some results given as binding are weak or reduced against the parent protein; the word gives no strength.

Amino acid sequences for entries named in this document (tags omitted).
UniProt Q15327: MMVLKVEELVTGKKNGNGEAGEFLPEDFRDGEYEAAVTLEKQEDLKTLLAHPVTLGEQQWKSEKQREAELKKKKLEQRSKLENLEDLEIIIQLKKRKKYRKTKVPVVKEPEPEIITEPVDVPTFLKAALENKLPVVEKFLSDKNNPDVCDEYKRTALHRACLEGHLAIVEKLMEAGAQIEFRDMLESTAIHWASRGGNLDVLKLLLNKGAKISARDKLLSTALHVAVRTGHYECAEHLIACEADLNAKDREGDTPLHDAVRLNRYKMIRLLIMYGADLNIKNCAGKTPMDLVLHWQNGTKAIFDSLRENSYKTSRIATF
UniProt Q00987: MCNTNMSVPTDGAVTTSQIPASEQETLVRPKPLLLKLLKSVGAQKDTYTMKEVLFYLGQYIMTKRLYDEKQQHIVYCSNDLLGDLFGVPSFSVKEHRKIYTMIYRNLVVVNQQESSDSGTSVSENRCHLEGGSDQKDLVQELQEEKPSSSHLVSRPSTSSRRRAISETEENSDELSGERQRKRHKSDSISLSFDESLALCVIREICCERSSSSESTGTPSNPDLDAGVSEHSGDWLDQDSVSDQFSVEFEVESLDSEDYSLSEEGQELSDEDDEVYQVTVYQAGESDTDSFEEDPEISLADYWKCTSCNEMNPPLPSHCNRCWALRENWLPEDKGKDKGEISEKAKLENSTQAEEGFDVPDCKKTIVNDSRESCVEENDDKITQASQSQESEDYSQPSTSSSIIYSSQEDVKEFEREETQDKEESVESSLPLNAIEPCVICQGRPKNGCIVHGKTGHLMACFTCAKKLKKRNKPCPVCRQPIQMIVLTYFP

For test [1], the target named is GFP-tagged ANKRD1 (human) (UniProt Q15327). Put plainly: co-IP; HEK293T transfected with GFP/YFP-tagged ANKRD1 or empty vector; lysates incubated overnight with anti-GFP agarose beads (Chromotek); beads washed twice with cold TBS; western blot. In general terms: A western blot detects proteins with antibodies after separation by electrophoresis.
In test [2] the target is Flag-ANKRD1 (Ankyrin Repeat Domain 1/CARP) (human) (UniProt Q15327). Put plainly: co-IP; HEK293T transfected with Flag-ANKRD1 or Flag-empty, lysed after 72 h; lysates incubated overnight with anti-flag M2 agarose beads; beads washed twice with cold TBS; western blot for MDM2 and p53.

“MDM2 (human homologue of mouse double minute 2) (from UniProt Q00987 1-491)”: the binding result in test [1] and in test [2] was “binds” throughout.

On to “p53 (Tumor Suppressor p53) (from UniProt P04637 1-393)”, for which the binding result in test [1] and in test [2] was “binds” each time.

(Values after publication PMC5687617.)
